The list shows only some results of the screen, not a fair sample: it gathers tests that were run many times, whatever their T/C, doses with no T/C, and many T/C values between a quarter and a half above the control. Further doses and runs are listed elsewhere. T/C gives the treated animals as a percentage of the vehicle group. Some doses have a count of surviving animals in place of a T/C: the source holds a T/C of zero for them, seemingly a mark for toxic or unscored doses. Some doses without a T/C left all or most animals alive at the check, yet need not have been tolerated: the source hardly ever lists a survival T/C far under the control, and the zero likely stands for such cases as well. Survivors were counted at the toxicity check, usually on the fifth day, unless a day is given; later deaths do not show. Schedules are NCI's codes, taken here to give the interval after Q, in days (D) or hours (H), and the number of doses after X. Some doses were run more than once; the values are given in rising order. For survival time, the PubChem record calls one and a half times the control and up active, and a quarter to a half above the control has no call in these data; cut-offs in other NCI protocols can differ. Additions like (4×) count equal records among those shown. Some T/C values are followed by the survivors on the day toxicity was checked, most often the fifth; without a count, all were alive then.
Tested on: CD2F1 mice, L1210 leukemia ip, survival T/C
Assay: NCI In Vivo Anticancer Drug Screen. Data for tumor model L1210 Leukemia (intraperitoneal) in CD2F1 (CDF1) mice
Details: higher T/C = longer survival
Description: The antitumor activity of compounds was measured in mice bearing transplantable tumors. Survival or tumor size were measured and the results are expressed as the measurement made in the treated group (T) divided by the measurement made in the vehicle treated control group (C). The tumor model used in this assay is L1210 Leukemia (intraperitoneal) in CD2F1 (CDF1) mice

[1] = T/C endpoint: mean survival time, dose: 100.0 mg/kg/injection, schedule: Q04DX003 (ip), vehicle: saline with Tween-80
[2] = T/C endpoint: mean survival time, dose: 200.0 mg/kg/injection, schedule: Q04DX003 (ip), vehicle: saline with Tween-80
[3] = T/C endpoint: mean survival time, dose: 400.0 mg/kg/injection, schedule: Q04DX003 (ip), vehicle: saline with Tween-80
[4] = T/C endpoint: mean survival time, dose: 25.0 mg/kg/injection, schedule: Q01DX009 (ip), vehicle: saline
[5] = T/C endpoint: mean survival time, dose: 50.0 mg/kg/injection, schedule: Q01DX009 (ip), vehicle: saline
[6] = T/C endpoint: mean survival time, dose: 200.0 mg/kg/injection, schedule: Q01DX001 (ip), vehicle: saline
[7] = T/C endpoint: mean survival time, dose: 400.0 mg/kg/injection, schedule: Q01DX001 (ip), vehicle: saline
[8] = T/C endpoint: mean survival time, dose: 100.0 mg/kg/injection, schedule: Q01DX009 (ip), vehicle: saline with Tween-80
[9] = T/C endpoint: mean survival time, dose: 200.0 mg/kg/injection, schedule: Q01DX009 (ip), vehicle: saline with Tween-80
[10] = T/C endpoint: mean survival time, dose: 400.0 mg/kg/injection, schedule: Q01DX009 (ip), vehicle: saline with Tween-80
[11] = T/C endpoint: mean survival time, dose: 300.0 mg/kg/injection, schedule: Q01DX001 (ip), vehicle: saline
[12] = T/C endpoint: mean survival time, dose: 200.0 mg/kg/injection, schedule: Q04DX003 (ip), vehicle: saline

## Cc1ccc(S(=O)(=O)OC/C(=C(/c2ccccc2)c2ccc(Cl)cc2)c2ccccc2)cc1
[1]
  survivor count: 1 of 6
[2]
  survivor count: 0 of 6
[3]
  survivor count: 0 of 6

## C1CN(P2(N3CC3)=NP(N3CC3)(N3CC3)=NP(N3CC3)(N3CC3)=N2)CCO1 (stereo not drawn)
T/C endpoint: mean survival time, dose: 12.5 mg/kg/injection, schedule: Q01DX009 (ip), vehicle: saline
  T/C: 113, 116, 123, 134 % of control
[4]
  T/C: 136, 145 (2×), 146 % of control
[5]
  T/C: 98, 129, 151, 170 % of control
T/C endpoint: mean survival time, dose: 100.0 mg/kg/injection, schedule: Q01DX001 (ip), vehicle: saline
  T/C: 142 % of control
T/C endpoint: mean survival time, dose: 100.0 mg/kg/injection, schedule: Q01DX009 (ip), vehicle: saline
  survivor count: 10 of 10 and 6 of 6
[6]
  survivor count: 2 of 6
T/C endpoint: mean survival time, dose: 200.0 mg/kg/injection, schedule: Q01DX009 (ip), vehicle: saline
  survivor count: 3 of 6 and 7 of 10
[7]
  survivor count: 3 of 6

## [C-]1=CC2C=CC1C1[C-]=CC21.[Cl][Pd][Cl] (stereo not drawn)
T/C endpoint: mean survival time, dose: 25.0 mg/kg/injection, schedule: Q01DX009 (ip), vehicle: saline with Tween-80
  survivor count: 0 of 6
T/C endpoint: mean survival time, dose: 50.0 mg/kg/injection, schedule: Q01DX009 (ip), vehicle: saline with Tween-80
  survivor count: 0 of 6
[8]
  survivor count: 0 of 6

## Nc1ccc(Cl)cc1N
T/C endpoint: mean survival time, dose: 200.0 mg/kg/injection, schedule: Q01DX009 (ip), vehicle: other
  T/C: 127 % of control

## CC(O)CNC1CCCCC1 (stereo not drawn)
[1]
  survivor count: 5 of 6
[2]
  survivor count: 3 of 6
[3]
  survivor count: 0 of 6

## O=c1[nH]cc(F)c(=O)n1C1CCCCO1 (stereo not drawn)
[4]
  T/C: 125 and 129 % of control
[5]
  T/C: 128 % of control

## Clc1cc2ccccc2c(Cl)n1
T/C endpoint: mean survival time, dose: 400.0 mg/kg/injection, schedule: Q01DX001 (ip), vehicle: saline with Tween-80
  survivor count: 3 of 6

## O=C(Nc1ccc2cc(S(=O)(=O)O)ccc2c1)c1ccc(N=Nc2c(S(=O)(=O)O)cc3cc(S(=O)(=O)O)cc(NC(=O)c4ccccc4)c3c2O)cc1
[9]
  survivor count: 3 of 6

## COC(=O)C[C@](O)(CCC(C)(C)O)C(=O)O[C@@H]1C(OC)=C[C@]23CCCN2CCc2cc4c(cc2[C@H]13)OCO4
T/C endpoint: median survival time, dose: 0.25 mg/kg/injection, schedule: Q01DX009 (ip), vehicle: saline
  T/C: 128 % of control
T/C endpoint: median survival time, dose: 1.0 mg/kg/injection, schedule: Q01DX009 (ip), vehicle: saline
  T/C: 128 and 132 % of control
T/C endpoint: median survival time, dose: 2.0 mg/kg/injection, schedule: Q01DX009 (ip), vehicle: saline
  T/C: 133 % of control (2×)
T/C endpoint: median survival time, dose: 4.0 mg/kg/injection, schedule: Q01DX009 (ip), vehicle: saline
  T/C: 130 % of control

## CC1CC([NH-])C([NH-])C(C)(C)C1.[Cl][Pt+2][Cl] (stereo not drawn)
T/C endpoint: median survival time, dose: 20.0 mg/kg/injection, schedule: Q04DX003 (ip), vehicle: Klucel (hydroxypropylcellulose) (HPC)
  T/C: 125 % of control
T/C endpoint: median survival time, dose: 40.0 mg/kg/injection, schedule: Q04DX003 (ip), vehicle: Klucel (hydroxypropylcellulose) (HPC)
  T/C: 136 % of control
T/C endpoint: median survival time, dose: 80.0 mg/kg/injection, schedule: Q04DX003 (ip), vehicle: Klucel (hydroxypropylcellulose) (HPC)
  T/C: 147 % of control
T/C endpoint: median survival time, dose: 200.0 mg/kg/injection, schedule: Q04DX003 (ip), vehicle: Klucel + Tween-80
  T/C: 147 % of control

## O=[N+]([O-])c1ccc(CCCl)c(CCl)c1
[3]
  survivor count: 6 of 6

## CCOC(=O)c1ccc(NC(=O)N2CCC(CCCc3ccccc3)CC2)cc1
T/C endpoint: mean survival time, dose: 200.0 mg/kg/injection, schedule: Q01DX001 (ip), vehicle: saline with Tween-80
  survivor count: 3 of 6 and 6 of 6
[10]
  survivor count: 3 of 3
T/C endpoint: mean survival time, dose: 400.0 mg/kg/injection, schedule: Q04DX002 (ip), vehicle: saline with Tween-80
  survivor count: 3 of 3

## CC(C)(C)CC(C)(C)c1ccc(OCCOc2ccc(C(=O)NCCNC(=O)c3ccc4ccccc4c3O)cc2N)cc1
[8]
  survivor count: 6 of 6

## Nc1nc(Cl)[nH]c(=O)n1
T/C endpoint: mean survival time, dose: 100.0 mg/kg/injection, schedule: Q01DX001 (ip), vehicle: Klucel (hydroxypropylcellulose) (HPC)
  survivor count: 3 of 6
T/C endpoint: mean survival time, dose: 200.0 mg/kg/injection, schedule: Q01DX001 (ip), vehicle: Klucel (hydroxypropylcellulose) (HPC)
  survivor count: 1 of 6
T/C endpoint: mean survival time, dose: 400.0 mg/kg/injection, schedule: Q01DX001 (ip), vehicle: Klucel (hydroxypropylcellulose) (HPC)
  survivor count: 0 of 6

## O=c1[nH]cnc2[nH]ccc12
[11]
  survivor count: 2 of 6

## ClCc1c2ccccc2c(CCl)c2ccccc12
T/C endpoint: mean survival time, dose: 2.05 mg/kg/injection, schedule: Q01DX009 (ip), vehicle: saline with Tween-80
  survivor count: 3 of 6
T/C endpoint: mean survival time, dose: 3.12 mg/kg/injection, schedule: Q01DX009 (ip), vehicle: saline with Tween-80
  survivor count: 3 of 6
T/C endpoint: mean survival time, dose: 4.68 mg/kg/injection, schedule: Q01DX009 (ip), vehicle: saline with Tween-80
  survivor count: 1 of 6

## COC(C(=O)C(O)C(C)O)C1CC2C=C3C=C(OC4CC(OC5CC(O)C(OC)C(C)O5)C(OC(C)=O)C(C)O4)C(C)C(=O)C3=C(O)C2=C(O)C1OC1CC(OC2CC(OC3CC(C)(O)C(O)C(C)O3)C(O)C(C)O2)C(O)C(C)O1 (stereo not drawn)
T/C endpoint: mean survival time, dose: 0.25 mg/kg/injection, schedule: Q01DX009 (ip), vehicle: saline
  T/C: 129 % of control
T/C endpoint: mean survival time, dose: 1.0 mg/kg/injection, schedule: Q01DX009 (ip), vehicle: saline with Tween-80
  T/C: 128 % of control [5 of 6 alive]
T/C endpoint: mean survival time, dose: 2.0 mg/kg/injection, schedule: Q01DX009 (ip), vehicle: saline with Tween-80
  T/C: 134 % of control
T/C endpoint: mean survival time, dose: 2.0 mg/kg/injection, schedule: Q01DX009 (ip), vehicle: saline
  T/C: 126 % of control
T/C endpoint: mean survival time, dose: 4.0 mg/kg/injection, schedule: Q01DX009 (ip), vehicle: saline with Tween-80
  T/C: 126 % of control [5 of 6 alive]
T/C endpoint: mean survival time, dose: 8.0 mg/kg/injection, schedule: Q01DX009 (ip), vehicle: saline with Tween-80
  T/C: 125 % of control (2×)

## C#CCOCC(O)C[As](=O)(O)c1cccc(Cl)c1 (stereo not drawn)
T/C endpoint: mean survival time, dose: 12.5 mg/kg/injection, schedule: Q04DX003 (ip), vehicle: saline
  survivor count: 6 of 6
T/C endpoint: mean survival time, dose: 25.0 mg/kg/injection, schedule: Q04DX003 (ip), vehicle: saline
  survivor count: 1 of 6

## Nc1c2ccccc2c[n+]2ccccc12
[12]
  survivor count: 0 of 6
T/C endpoint: mean survival time, dose: 400.0 mg/kg/injection, schedule: Q04DX003 (ip), vehicle: saline
  survivor count: 1 of 6

## O=[N+]([O-])c1cc(C(F)(F)F)ccc1F
[2]
  survivor count: 0 of 6
[3]
  survivor count: 0 of 6

## O=C(O)c1cc(CBr)ccc1CBr
[1]
  survivor count: 3 of 6
[2]
  survivor count: 0 of 6
[3]
  survivor count: 0 of 6

## CC1CC(C)(C)NC(CCC2NC(C)(C)CC(C)O2)O1 (stereo not drawn)
[9]
  survivor count: 1 of 6
[10]
  survivor count: 0 of 6

## CCCCc1ccc(O)c(CN2CCCCC2)c1
[2]
  survivor count: 2 of 6
[3]
  survivor count: 0 of 6

## CCN(CC)CCCN(CC(=O)O)CC(=O)O
[6]
  survivor count: 1 of 4
[7]
  survivor count: 0 of 4

## O=S(=O)(/N=C/c1ccccc1)c1ccc(Cl)cc1
[9]
  survivor count: 1 of 3

## CCOC(=O)/C=C\C(=O)O.[Mn]
[12]
  survivor count: 2 of 6
[11]
  survivor count: 3 of 6
[7]
  survivor count: 1 of 6
T/C endpoint: mean survival time, dose: 400.0 mg/kg/injection, schedule: Q04DX002 (ip), vehicle: saline
  survivor count: 1 of 6
T/C endpoint: mean survival time, dose: 500.0 mg/kg/injection, schedule: Q01DX001 (ip), vehicle: saline
  survivor count: 0 of 6

## OCC1OC(c2[nH]nc3c([Se])ncnc23)C(O)C1O (stereo not drawn)
T/C endpoint: mean survival time, dose: 100.0 mg/kg/injection, schedule: Q01DX005 (ip), vehicle: saline
  survivor count: 0 of 6
T/C endpoint: mean survival time, dose: 200.0 mg/kg/injection, schedule: Q01DX005 (ip), vehicle: saline
  survivor count: 0 of 6

## CC1=CC(=O)C(Sc2ccc(C)cc2)=CC1=O
[8]
  survivor count: 2 of 6
[9]
  survivor count: 2 of 6
